Assay results published in the supplement of paper PMC10849652.
The other results are listed elsewhere or left out.

The chains behind the UniProt entries cited, without tags or fusion partners. Where a name states a change or a piece, a line headed by the entry shows the natural chain unless it says otherwise.
UniProt Q9NY35: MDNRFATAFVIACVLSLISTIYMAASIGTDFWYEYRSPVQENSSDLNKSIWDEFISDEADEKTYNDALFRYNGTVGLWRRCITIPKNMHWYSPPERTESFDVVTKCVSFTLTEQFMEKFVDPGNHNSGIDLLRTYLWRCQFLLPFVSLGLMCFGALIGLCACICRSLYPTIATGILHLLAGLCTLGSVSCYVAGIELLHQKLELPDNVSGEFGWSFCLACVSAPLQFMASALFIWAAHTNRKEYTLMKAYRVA
UniProt Q7Z460: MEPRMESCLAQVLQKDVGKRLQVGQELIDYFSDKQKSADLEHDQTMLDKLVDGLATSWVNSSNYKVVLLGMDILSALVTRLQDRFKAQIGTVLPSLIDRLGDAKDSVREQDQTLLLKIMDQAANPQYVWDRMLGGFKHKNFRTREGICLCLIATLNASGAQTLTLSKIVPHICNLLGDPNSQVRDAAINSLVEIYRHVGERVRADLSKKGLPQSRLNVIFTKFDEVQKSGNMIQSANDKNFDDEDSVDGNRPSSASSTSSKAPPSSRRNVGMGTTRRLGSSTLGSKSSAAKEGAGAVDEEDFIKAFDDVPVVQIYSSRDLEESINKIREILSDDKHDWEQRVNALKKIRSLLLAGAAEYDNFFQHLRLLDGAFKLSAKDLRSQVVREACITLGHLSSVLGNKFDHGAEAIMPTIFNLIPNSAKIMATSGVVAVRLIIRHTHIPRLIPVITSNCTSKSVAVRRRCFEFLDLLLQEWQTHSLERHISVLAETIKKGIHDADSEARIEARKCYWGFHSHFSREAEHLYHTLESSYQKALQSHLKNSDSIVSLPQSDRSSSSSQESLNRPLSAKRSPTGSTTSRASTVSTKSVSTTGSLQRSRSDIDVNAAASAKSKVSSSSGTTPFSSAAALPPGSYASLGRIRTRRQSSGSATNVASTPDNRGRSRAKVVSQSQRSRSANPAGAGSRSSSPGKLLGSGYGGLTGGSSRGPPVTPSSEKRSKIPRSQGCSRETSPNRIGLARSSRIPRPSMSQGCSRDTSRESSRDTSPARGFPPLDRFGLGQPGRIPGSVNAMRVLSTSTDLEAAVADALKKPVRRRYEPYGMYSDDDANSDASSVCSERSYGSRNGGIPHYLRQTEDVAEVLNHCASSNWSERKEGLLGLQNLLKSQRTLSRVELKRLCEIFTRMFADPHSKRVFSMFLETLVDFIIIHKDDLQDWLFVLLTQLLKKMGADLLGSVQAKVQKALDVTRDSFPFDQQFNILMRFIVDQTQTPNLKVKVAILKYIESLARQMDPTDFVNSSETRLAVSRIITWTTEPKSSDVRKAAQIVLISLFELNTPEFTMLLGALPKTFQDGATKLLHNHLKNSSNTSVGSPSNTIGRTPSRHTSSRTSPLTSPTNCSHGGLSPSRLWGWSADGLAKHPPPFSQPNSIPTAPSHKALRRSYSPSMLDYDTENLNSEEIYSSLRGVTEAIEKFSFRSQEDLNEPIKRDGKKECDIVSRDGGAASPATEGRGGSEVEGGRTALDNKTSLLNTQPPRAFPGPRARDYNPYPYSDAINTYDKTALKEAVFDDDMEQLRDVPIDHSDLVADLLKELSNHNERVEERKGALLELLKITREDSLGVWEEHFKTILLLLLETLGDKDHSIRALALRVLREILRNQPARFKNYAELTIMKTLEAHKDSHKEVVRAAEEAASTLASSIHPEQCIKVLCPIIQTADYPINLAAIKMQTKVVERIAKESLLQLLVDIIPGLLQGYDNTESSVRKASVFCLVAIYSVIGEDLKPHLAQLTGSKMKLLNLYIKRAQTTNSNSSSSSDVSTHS
UniProt Q92989: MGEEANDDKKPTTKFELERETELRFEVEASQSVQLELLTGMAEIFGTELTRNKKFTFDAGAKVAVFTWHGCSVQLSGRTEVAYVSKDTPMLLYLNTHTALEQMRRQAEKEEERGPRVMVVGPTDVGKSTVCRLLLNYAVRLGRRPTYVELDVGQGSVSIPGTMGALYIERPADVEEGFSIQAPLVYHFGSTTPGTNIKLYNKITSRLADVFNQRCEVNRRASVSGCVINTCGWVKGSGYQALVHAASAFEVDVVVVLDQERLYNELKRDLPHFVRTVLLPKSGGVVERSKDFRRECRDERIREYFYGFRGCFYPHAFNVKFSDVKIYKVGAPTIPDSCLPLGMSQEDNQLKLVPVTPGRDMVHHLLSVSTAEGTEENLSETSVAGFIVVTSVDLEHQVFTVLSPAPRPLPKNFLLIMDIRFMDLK
UniProt P30622: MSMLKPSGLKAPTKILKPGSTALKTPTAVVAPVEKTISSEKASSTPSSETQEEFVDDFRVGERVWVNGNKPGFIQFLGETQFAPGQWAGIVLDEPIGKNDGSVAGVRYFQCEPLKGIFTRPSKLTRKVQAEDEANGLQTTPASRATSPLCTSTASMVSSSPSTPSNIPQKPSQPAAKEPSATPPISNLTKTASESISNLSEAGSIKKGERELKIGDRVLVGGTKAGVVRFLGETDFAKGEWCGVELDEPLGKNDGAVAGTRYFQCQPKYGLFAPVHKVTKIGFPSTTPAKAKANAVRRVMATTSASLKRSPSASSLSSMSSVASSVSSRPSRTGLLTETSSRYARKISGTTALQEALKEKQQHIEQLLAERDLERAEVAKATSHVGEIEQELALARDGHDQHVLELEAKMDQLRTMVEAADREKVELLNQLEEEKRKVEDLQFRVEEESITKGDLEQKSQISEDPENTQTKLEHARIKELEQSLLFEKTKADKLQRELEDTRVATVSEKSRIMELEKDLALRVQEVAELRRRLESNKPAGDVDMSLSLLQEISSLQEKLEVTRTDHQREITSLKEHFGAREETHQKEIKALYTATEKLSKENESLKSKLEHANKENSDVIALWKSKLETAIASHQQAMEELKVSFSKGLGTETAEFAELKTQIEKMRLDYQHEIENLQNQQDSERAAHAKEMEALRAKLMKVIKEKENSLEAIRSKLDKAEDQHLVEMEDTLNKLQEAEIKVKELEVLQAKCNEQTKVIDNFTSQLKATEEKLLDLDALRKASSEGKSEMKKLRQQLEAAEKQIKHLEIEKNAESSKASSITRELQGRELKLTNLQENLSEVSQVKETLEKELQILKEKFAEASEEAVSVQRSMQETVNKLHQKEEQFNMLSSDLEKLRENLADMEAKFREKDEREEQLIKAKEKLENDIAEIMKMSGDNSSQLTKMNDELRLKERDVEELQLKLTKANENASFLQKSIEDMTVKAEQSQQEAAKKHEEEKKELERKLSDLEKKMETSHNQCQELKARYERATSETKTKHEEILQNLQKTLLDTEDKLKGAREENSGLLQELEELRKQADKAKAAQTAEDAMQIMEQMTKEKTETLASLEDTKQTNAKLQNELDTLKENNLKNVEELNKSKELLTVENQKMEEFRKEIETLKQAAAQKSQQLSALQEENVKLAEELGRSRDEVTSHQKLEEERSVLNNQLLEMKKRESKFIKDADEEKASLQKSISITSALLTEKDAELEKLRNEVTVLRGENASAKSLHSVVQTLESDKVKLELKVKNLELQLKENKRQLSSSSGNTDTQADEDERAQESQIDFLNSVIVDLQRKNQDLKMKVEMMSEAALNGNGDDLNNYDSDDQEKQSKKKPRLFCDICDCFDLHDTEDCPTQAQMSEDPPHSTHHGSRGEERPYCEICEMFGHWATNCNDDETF
UniProt P49761: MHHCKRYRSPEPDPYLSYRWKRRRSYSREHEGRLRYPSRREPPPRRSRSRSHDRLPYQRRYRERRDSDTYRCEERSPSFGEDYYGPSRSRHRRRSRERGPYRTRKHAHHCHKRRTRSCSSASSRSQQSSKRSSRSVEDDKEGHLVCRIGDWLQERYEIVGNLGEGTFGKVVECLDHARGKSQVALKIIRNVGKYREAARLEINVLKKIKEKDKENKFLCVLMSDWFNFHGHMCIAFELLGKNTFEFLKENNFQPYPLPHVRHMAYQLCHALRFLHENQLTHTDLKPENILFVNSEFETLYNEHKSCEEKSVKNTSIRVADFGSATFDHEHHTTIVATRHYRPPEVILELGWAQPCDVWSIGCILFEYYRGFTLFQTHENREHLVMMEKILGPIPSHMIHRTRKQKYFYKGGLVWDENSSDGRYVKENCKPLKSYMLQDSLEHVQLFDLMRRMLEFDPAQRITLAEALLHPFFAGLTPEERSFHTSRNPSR
UniProt O75122: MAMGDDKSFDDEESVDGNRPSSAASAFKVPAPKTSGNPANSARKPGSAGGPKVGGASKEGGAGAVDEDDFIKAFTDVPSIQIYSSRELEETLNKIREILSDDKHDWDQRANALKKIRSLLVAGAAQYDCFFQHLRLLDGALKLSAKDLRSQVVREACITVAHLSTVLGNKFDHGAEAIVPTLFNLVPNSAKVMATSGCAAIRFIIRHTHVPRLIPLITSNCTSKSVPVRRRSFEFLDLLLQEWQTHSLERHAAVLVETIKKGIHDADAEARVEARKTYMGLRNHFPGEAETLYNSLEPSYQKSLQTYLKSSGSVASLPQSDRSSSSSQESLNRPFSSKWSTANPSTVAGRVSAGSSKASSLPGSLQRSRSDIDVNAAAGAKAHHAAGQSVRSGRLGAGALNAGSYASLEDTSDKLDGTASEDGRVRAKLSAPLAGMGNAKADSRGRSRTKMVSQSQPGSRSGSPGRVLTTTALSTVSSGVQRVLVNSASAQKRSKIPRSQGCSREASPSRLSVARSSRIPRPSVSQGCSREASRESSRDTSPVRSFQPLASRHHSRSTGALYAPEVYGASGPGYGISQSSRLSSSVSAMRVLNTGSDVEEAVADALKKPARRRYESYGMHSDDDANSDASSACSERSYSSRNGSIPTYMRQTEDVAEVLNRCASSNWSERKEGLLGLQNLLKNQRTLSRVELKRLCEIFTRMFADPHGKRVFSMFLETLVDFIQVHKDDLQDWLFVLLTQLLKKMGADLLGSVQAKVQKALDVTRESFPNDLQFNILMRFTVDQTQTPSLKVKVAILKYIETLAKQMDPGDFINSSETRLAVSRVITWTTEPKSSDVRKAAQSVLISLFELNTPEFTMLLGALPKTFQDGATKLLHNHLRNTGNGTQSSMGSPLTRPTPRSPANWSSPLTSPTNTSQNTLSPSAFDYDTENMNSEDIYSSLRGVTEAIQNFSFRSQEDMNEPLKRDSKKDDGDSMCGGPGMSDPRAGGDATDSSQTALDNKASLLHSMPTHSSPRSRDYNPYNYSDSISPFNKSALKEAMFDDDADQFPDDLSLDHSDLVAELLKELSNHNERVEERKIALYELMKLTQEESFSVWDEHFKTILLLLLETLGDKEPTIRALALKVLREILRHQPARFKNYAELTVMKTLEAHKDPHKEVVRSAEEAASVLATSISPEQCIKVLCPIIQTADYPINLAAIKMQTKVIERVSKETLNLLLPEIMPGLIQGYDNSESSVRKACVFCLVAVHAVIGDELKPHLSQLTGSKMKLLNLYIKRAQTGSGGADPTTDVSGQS
UniProt Q2KHT3: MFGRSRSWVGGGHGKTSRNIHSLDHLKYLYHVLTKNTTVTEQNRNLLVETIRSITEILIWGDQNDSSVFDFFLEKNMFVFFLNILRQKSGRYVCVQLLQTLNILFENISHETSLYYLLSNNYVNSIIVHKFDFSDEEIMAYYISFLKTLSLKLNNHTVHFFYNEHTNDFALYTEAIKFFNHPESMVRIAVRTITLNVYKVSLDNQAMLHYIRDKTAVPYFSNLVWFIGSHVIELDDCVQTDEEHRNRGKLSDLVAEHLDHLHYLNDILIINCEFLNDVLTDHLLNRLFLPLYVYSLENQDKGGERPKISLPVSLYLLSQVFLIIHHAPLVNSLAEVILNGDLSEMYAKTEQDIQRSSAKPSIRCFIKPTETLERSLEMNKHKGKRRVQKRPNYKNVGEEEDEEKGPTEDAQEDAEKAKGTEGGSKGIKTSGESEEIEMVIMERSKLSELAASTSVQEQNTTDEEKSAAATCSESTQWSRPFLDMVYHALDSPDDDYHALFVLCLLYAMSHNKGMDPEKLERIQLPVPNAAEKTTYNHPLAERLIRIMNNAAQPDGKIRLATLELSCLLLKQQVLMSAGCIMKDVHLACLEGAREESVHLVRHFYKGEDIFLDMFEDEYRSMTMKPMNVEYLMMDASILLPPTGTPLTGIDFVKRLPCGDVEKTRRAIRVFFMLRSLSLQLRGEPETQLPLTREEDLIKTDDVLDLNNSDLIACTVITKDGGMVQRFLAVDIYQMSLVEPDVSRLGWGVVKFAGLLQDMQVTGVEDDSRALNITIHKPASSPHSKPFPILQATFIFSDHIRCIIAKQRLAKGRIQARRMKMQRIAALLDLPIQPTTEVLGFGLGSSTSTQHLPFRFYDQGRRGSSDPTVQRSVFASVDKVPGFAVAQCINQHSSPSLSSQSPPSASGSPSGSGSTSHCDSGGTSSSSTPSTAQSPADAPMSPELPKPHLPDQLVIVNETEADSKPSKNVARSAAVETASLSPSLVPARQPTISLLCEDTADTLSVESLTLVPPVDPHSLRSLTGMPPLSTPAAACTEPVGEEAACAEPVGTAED

Assays:
Assay in all cases: log2 fold change, soluble protein after heating vs DMSO (PISA); higher = thermal stabilisation; K562 lysate, 10 uM; active = over 0.2 and 3.5 SD of the protein, either way, in both replicates (recomputed)
[1] = compound: CS(=O)(=O)CCNCc1ccc(-c2ccc3ncnc(Nc4ccc(OCc5cccc(F)c5)c(Cl)c4)c3c2)o1 [lapatinib]
In short: (§1)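 Following dounce homogenisation of K562 pellets in PBS pH 7.4 with 1 mM MgCl2, crude extract at 1 mg/mL protein was incubated for 30 min with 10 μM compound. Aliquots were then heated for 3 min over 48°C-58°C and pooled, NP-40 was added to 0.5% at 4°C, and soluble protein was recovered as the supernatant at 21,000xg for 90 min. Channel-sum-equalised TMTpro 16plex LC-MS/MS quantified this protein. Each value, from duplicates, is a log-two fold change in thermal stability relative to solvent controls.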

[2] = compound: C[C@@H](Oc1cc(-c2cnn(C3CCNCC3)c2)cnc1N)c1c(Cl)ccc(F)c1Cl [crizotinib]
In short: as §1

[3] = compound: C[C@H](C1=CC=C(C=C1)C(=O)NC2=C3C=CNC3=NC=C2)N
In short: as §1

[4] = compound: C[C@H](Nc1ncnc2nc[nH]c12)c1cc2cccc(Cl)c2c(=O)n1-c1ccccc1 [duvelisib]
In short: as §1

[5] = compound: Cc1cc(Nc2cc(CN3CCOCC3)c3nc(C)c(Cc4ccc(Cl)cc4F)n3n2)n[nH]1 [gandotinib]
In short: as §1

[6] = compound: Cc1cc(Nc2cc(N3CCN(C)CC3)nc(Sc3ccc(NC(=O)C4CC4)cc3)n2)n[nH]1 [tozasertib]
In short: as §1

[7] = compound: Cc1ccc(-n2nc(C(C)(C)C)cc2NC(=O)Nc2ccc(OCCN3CCOCC3)c3ccccc23)cc1 [doramapimod]
In short: as §1

[8] = compound: Cc1ccc(NC(=O)c2ccc(CN3CC[C@H](N(C)C)C3)c(C(F)(F)F)c2)cc1Nc1nccc(-c2cncnc2)n1 [bafetinib]
In short: as §1

[9] = compound: Cc1cccc(CC(=O)N2CCc3c2ccc(-c2cn(C)c4ncnc(N)c24)c3F)n1
In short: as §1

[10] = compound: Cc1cn(-c2cc(NC(=O)c3ccc(C)c(Nc4nccc(-c5cccnc5)n4)c3)cc(C(F)(F)F)c2)cn1 [nilotinib]
In short: as §1

[11] = compound: Cc1nc(Nc2n[nH]c3c2CN(C(=O)N[C@H](CN(C)C)c2ccccc2)C3(C)C)c2sccc2n1
In short: as §1

[12] = compound: Cc1nc(Nc2ncc(C(=O)Nc3c(C)cccc3Cl)s2)cc(N2CCN(CCO)CC2)n1 [dasatinib]
In short: as §1

[13] = compound: Cc1ncc(-c2ccnc(Nc3ccc(S(C)(=O)=O)cc3)n2)n1C(C)C
In short: as §1

[14] = compound: Cn1cc(-c2ccc3c(c2)CCN3C(=O)Cc2cccc(C(F)(F)F)c2)c2c(N)ncnc21
In short: as §1

[15] = compound: Cn1cc(CNCC2CCN(c3ncc(C(=O)NO)cn3)CC2)c2ccccc21 [quisinostat]
In short: as §1

[16] = compound: Cn1cncc1[C@@](N)(c1ccc(Cl)cc1)c1ccc2c(c1)c(-c1cccc(Cl)c1)cc(=O)n2C [tipifarnib]
In short: as §1

[17] = compound: NC(=O)Nc1cc(-c2cccc(F)c2)sc1C(=O)N[C@H]1CCCNC1
In short: as §1

[18] = compound: NC(=O)c1cnc(N[C@@H]2CCCC[C@@H]2N)nc1Nc1cccc(-n2nccn2)c1
In short: as §1

[19] = compound: NC1(c2ccc(-c3nc4ccn5c(=O)[nH]nc5c4cc3-c3ccccc3)cc2)CCC1
In short: as §1

Measured: log2 fold change

CLTB isoform 2 (UniProt P09497)
inactive: [1] -0.017 | [2] 0.022 | [3] -0.01 | [4] -0.02 | [5] 0.023 | [6] 0.021 | [7] 0.015 | [8] 0.035 | [9] -0.036 | [10] 0.006 | [11] -0.002 | [12] 0.014 | [13] -0.006 | [14] -0.032 | [15] -0.021 | [16] -0.003 | [17] -0.016 | [18] -0.018 | [19] -0.02

CLINT1 isoform 3 (UniProt Q14677)
inactive: [1] 0.042 | [2] 0.142 | [3] -0.022 | [4] -0.044 | [5] 0.187 | [6] -0.016 | [7] 0.167 | [8] 0.02 | [9] -0.063 | [10] 0.024 | [11] -0.009 | [12] 0.054 | [13] -0.014 | [14] 0.009 | [15] 0.126 | [16] -0.082 | [17] -0.029 | [18] -0.026 | [19] 0.031

CLDND1 (UniProt Q9NY35)
inactive: [1] 0.001 | [2] 0.063 | [3] 0.003 | [4] 0.07 | [5] 0.009 | [6] -0.006 | [7] 0.009 | [8] 0.031 | [9] 0.011 | [10] 0.077 | [11] 0.02 | [12] 0.069 | [13] -0.052 | [14] 0.076 | [15] -0.012 | [16] -0.058 | [17] -0.08 | [18] 0.03 | [19] 0.023

CLASP1 (UniProt Q7Z460)
inactive: [1] 0 | [2] -0.051 | [3] -0.09 | [4] -0.003 | [5] 0.188 | [6] 0.004 | [7] 0.03 | [8] -0.042 | [9] 0.185 | [10] -0.015 | [11] 0.021 | [12] -0.097 | [13] 0.013 | [14] 0.016 | [15] -0.085 | [16] -0.051 | [17] -0.022 | [18] 0.012 | [19] -0.018

CLP1 (UniProt Q92989)
inactive: [1] -0.003 | [2] -0.041 | [3] -0.12 | [4] -0.056 | [5] 0.008 | [6] 0.004 | [7] 0.032 | [8] 0.01 | [9] 0.047 | [10] -0.029 | [11] 0.039 | [12] -0.037 | [13] -0.039 | [14] 0.119 | [15] -0.065 | [16] -0.011 | [17] 0.029 | [18] -0.027 | [19] 0.026

CLTC (UniProt Q00610)
inactive: [1] -0.021 | [2] -0.052 | [3] 0.053 | [4] -0.013 | [5] -0.083 | [6] -0.015 | [7] 0.044 | [8] -0.026 | [9] 0.026 | [10] 0.023 | [11] -0.024 | [12] -0.051 | [13] 0.008 | [14] 0.029 | [15] 0.06 | [16] -0.003 | [17] 0.031 | [18] 0.005 | [19] -0.029

CIR1 (UniProt Q86X95)
inactive: [1] 0.05 | [2] 0.061 | [4] -0.1 | [6] 0.033 | [7] 0.035 | [12] -0.171 | [14] 0.268 | [15] -0.017 | [17] -0.116 | [18] 0.1

CLPP (UniProt Q16740)
inactive: [1] 0.05 | [2] 0.068 | [3] 0.044 | [4] -0.005 | [5] -0.061 | [6] 0.023 | [7] 0.017 | [8] 0.035 | [9] -0.012 | [10] 0 | [11] 0.011 | [12] 0.13 | [13] -0.022 | [14] 0.017 | [15] 0.022 | [16] -0.008 | [17] -0.011 | [18] -0.017 | [19] 0.001

CLCN6 isoform 5 (UniProt P51797)
inactive: [1] -0.048 | [2] 0.03 | [4] -0.008 | [6] -0.023 | [7] 0.039 | [8] -0.062 | [12] -0.073 | [14] 0.067 | [15] 0 | [17] -0.046 | [18] 0.011 | [19] 0.045

CLSTN3 isoform 2 (UniProt Q9BQT9)
inactive: [1] -0.009 | [2] 0.184 | [4] 0.023 | [7] 0.065 | [10] -0.027 | [11] -0.019 | [12] -0.053 | [13] -0.091 | [14] 0.007 | [15] 0.233 | [16] -0.019 | [17] -0.034 | [18] 0.022 | [19] -0.03

CMTM4 (UniProt Q8IZR5)
inactive: [1] -0.159 | [2] -0.009 | [3] -0.071 | [5] 0.037 | [7] -0.107 | [9] -0.024 | [15] 0.034 | [17] -0.057 | [18] 0.039 | [19] -0.028

CLIP1 isoform 1 (UniProt P30622)
inactive: [1] 0.006 | [2] 0.023 | [3] -0.023 | [4] 0.004 | [5] 0.036 | [6] 0.001 | [7] 0.011 | [8] -0.003 | [9] -0.01 | [10] -0.01 | [11] 0.01 | [12] 0.022 | [13] 0.013 | [14] 0.001 | [15] 0.008 | [16] 0.002 | [17] -0.004 | [18] -0.002 | [19] -0.002

Random excerpt: 2 entries already listed, in no set order.
CLSTN3 isoform 2 (UniProt Q9BQT9)
inactive: [1] -0.009 | [2] 0.184 | [4] 0.023 | [7] 0.065 | [10] -0.027 | [11] -0.019 | [12] -0.053 | [13] -0.091 | [14] 0.007 | [15] 0.233 | [16] -0.019 | [17] -0.034 | [18] 0.022 | [19] -0.03

CLPP (UniProt Q16740)
inactive: [1] 0.05 | [2] 0.068 | [3] 0.044 | [4] -0.005 | [5] -0.061 | [6] 0.023 | [7] 0.017 | [8] 0.035 | [9] -0.012 | [10] 0 | [11] 0.011 | [12] 0.13 | [13] -0.022 | [14] 0.017 | [15] 0.022 | [16] -0.008 | [17] -0.011 | [18] -0.017 | [19] 0.001

Remaining list, next part:

CKLF (UniProt Q9UBR5)
inactive: [1] -0.515 | [2] 0.064 | [3] 0.081 | [4] 0.017 | [5] -0.09 | [7] 0.019 | [9] 0.087 | [12] -0.265 | [14] -0.118 | [15] 0.093 | [17] 0.002 | [18] -0.005

CLSTN1 (UniProt O94985)
inactive: [1] -0.496 | [2] -0.005 | [3] 0.186 | [5] 0.307 | [6] 0.436 | [7] 0.06 | [9] 0.151 | [10] -0.156 | [11] -0.044 | [13] 0.211 | [15] 0.094 | [16] -0.018 | [17] -0.075 | [18] -0.102

CLK3 (UniProt P49761)
inactive: [1] -0.006 | [2] -0.132 | [4] 0.083 | [6] -0.016 | [7] 0.195 | [12] 0.064 | [14] -0.157 | [15] 0.023 | [17] 0.1 | [18] 0.016 | [19] 0.062

CLASP2 (UniProt O75122)
inactive: [1] 0.003 | [2] 0.127 | [3] -0.086 | [5] -0.031 | [6] 0.052 | [7] -0.001 | [8] -0.199 | [9] 0.067 | [10] 0.013 | [11] -0.14 | [13] -0.061 | [15] -0.135 | [16] -0.242 | [17] -0.058 | [18] 0.205

CHFR (UniProt Q96EP1)
inactive: [1] -0.062 | [2] -0.051 | [4] 0.023 | [6] -0.063 | [7] -0.012 | [10] 0.035 | [11] 0.082 | [12] 0.017 | [13] 0.019 | [14] 0.049 | [15] 0.02 | [16] 0.013 | [17] 0.036 | [18] 0.246 | [19] 0.005

CLEC16A isoform 2 (UniProt Q2KHT3)
inactive: [1] -0.035 | [2] 0.039 | [4] 0.05 | [7] 0.034 | [8] 0.095 | [10] -0.499 | [11] 0.085 | [12] -0.079 | [13] 0.018 | [14] -0.054 | [15] -0.021 | [16] -0.365 | [17] -0.047 | [18] 0.054 | [19] -0.154

CISD3 (UniProt P0C7P0)
inactive: [1] 0.05 | [2] 0.026 | [3] -0.027 | [4] 0.042 | [5] 0.055 | [6] 0.035 | [7] 0.082 | [9] 0.028 | [10] -0.052 | [11] 0.018 | [12] -0.003 | [13] 0.013 | [14] 0.009 | [15] 0.001 | [16] -0.016 | [17] 0.012 | [18] 0.062 | [19] 0.004

CLPX (UniProt O76031)
inactive: [1] 0.007 | [2] -0.087 | [3] 0.005 | [4] 0.026 | [5] -0.074 | [6] -0.069 | [7] 0.014 | [8] -0.005 | [9] -0.014 | [10] -0.01 | [11] -0.007 | [12] -0.017 | [13] 0.044 | [14] -0.003 | [15] -0.022 | [16] 0.068 | [17] 0.063 | [18] 0.001 | [19] 0.029

CHTF18 (UniProt Q8WVB6)
inactive: [1] 0 | [2] -0.09 | [4] 0.024 | [6] -0.05 | [7] 0.007 | [10] -0.002 | [11] -0.006 | [12] -0.04 | [13] -0.067 | [14] 0.081 | [15] -0.058 | [16] 0 | [17] 0.117 | [18] -0.022 | [19] 0.017
